{"source": "PubChem BioAssay AID743454 – Peter MacCallum Cancer Centre | 2014", "assay": "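Knock-downs lowering viability or raising caspase 3/7 activity in vorinostat-treated resistant cells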 (primary screen)", "cells": "human HCT116-VR colon cancer cells, selected for vorinostat resistance", "reagents": "siRNA pool against human genes, 40 nM siRNA pool", "duration": "vorinostat for 24 h, read-out about 72 h after transfection", "treatment": "vorinostat at 2.5 µM final", "measured": "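Cell viability by CellTiter-Fluor and caspase 3/7 activity by luminescence, each scaled to mock wells per plate, duplicates averaged, then robust z-scored over all plates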", "direction": "viability robust z-score: higher = more viable cells than screen typical; caspase robust z-score: higher = more caspase 3/7 activity than screen typical", "active means": "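Hits are knock-downs in viability class RV1/RV2 or caspase class CA1/CA2, excluding ones that killed cells in the no-drug cell-count arm; hits then retested with single siRNAs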", "note": "The deposit covers about 18,000 reagents; this is a random part of them. In the full data, 450 (2.5%) got an active call. 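Single biological run; no consistent viability z cut-off exists, so the class columns, not z-scores, define the calls.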"}
{"gene": "TSTD2", "viability hit class": "no change", "caspase hit class": "no change", "viability robust z-score": -0.44, "caspase robust z-score": -0.68, "call": "inactive"}
{"gene": "RGPD7 (retired record)", "viability hit class": "no change", "caspase hit class": "no change", "viability robust z-score": 1.25, "caspase robust z-score": 0.44, "call": "inactive"}
{"gene": "MCM10", "viability hit class": "no change", "caspase hit class": "no change", "viability robust z-score": 0.09, "caspase robust z-score": 1.84, "call": "inactive"}
{"gene": "PA2G4", "viability hit class": "no change", "caspase hit class": "no change", "viability robust z-score": -0.26, "caspase robust z-score": -0.93, "call": "inactive"}
{"gene": "CLDN1", "viability hit class": "no change", "caspase hit class": "no change", "viability robust z-score": 0.96, "caspase robust z-score": 0.58, "call": "inactive"}
{"gene": "CLEC5A", "viability hit class": "no change", "caspase hit class": "no change", "viability robust z-score": -1.46, "caspase robust z-score": 4.75, "call": "inactive"}
{"gene": "CPXM1", "viability hit class": "no change", "caspase hit class": "no change", "viability robust z-score": -0.2, "caspase robust z-score": 0.36, "call": "inactive"}
{"gene": "SLC25A11", "viability hit class": "no change", "caspase hit class": "no change", "viability robust z-score": -1.82, "caspase robust z-score": 1.82, "call": "inactive"}
{"gene": "IFNA2", "viability hit class": "no change", "caspase hit class": "no change", "viability robust z-score": -0.34, "caspase robust z-score": -0.75, "call": "inactive"}
{"gene": "CAMK2G", "viability hit class": "no change", "caspase hit class": "no change", "viability robust z-score": 0.39, "caspase robust z-score": 0.14, "call": "inactive"}

Sorted by “viability robust z-score” (low to high): 2 of the entries above.
{"gene": "CLEC5A", "viability hit class": "no change", "caspase hit class": "no change", "viability robust z-score": -1.46, "caspase robust z-score": 4.75, "call": "inactive"}
{"gene": "CLDN1", "viability hit class": "no change", "caspase hit class": "no change", "viability robust z-score": 0.96, "caspase robust z-score": 0.58, "call": "inactive"}

More results:
{"gene": "NRM", "viability hit class": "no change", "caspase hit class": "no change", "viability robust z-score": 0.82, "caspase robust z-score": -1.08, "call": "inactive"}
{"gene": "EPHA5", "viability hit class": "no change", "caspase hit class": "no change", "viability robust z-score": 0.38, "caspase robust z-score": 0.24, "call": "inactive"}
{"gene": "DUSP29", "viability hit class": "no change", "caspase hit class": "no change", "viability robust z-score": -0.62, "caspase robust z-score": 1.42, "call": "inactive"}
{"gene": "KDR", "viability hit class": "no change", "caspase hit class": "no change", "viability robust z-score": 0.2, "caspase robust z-score": -0.48, "call": "inactive"}
{"gene": "SMARCC2", "viability hit class": "no change", "caspase hit class": "no change", "viability robust z-score": 1.14, "caspase robust z-score": -0.34, "call": "inactive"}
{"gene": "SELENOP", "viability hit class": "no change", "caspase hit class": "no change", "viability robust z-score": 1.08, "caspase robust z-score": -0.76, "call": "inactive"}
{"gene": "ANP32E", "viability hit class": "no change", "caspase hit class": "no change", "viability robust z-score": 0.86, "caspase robust z-score": -0.23, "call": "inactive"}
{"gene": "ME3", "viability hit class": "no change", "caspase hit class": "no change", "viability robust z-score": 0.48, "caspase robust z-score": 0.11, "call": "inactive"}
{"gene": "AFMID", "viability hit class": "no change", "caspase hit class": "no change", "viability robust z-score": -1.56, "caspase robust z-score": -0.5, "call": "inactive"}
{"gene": "FBXW12", "viability hit class": "no change", "caspase hit class": "no change", "viability robust z-score": 0.86, "caspase robust z-score": -0.16, "call": "inactive"}
{"gene": "CYP2B6", "viability hit class": "no change", "caspase hit class": "no change", "viability robust z-score": -0.04, "caspase robust z-score": -0.22, "call": "inactive"}
